Experimental data taken from the supplement of paper PMC10849652.
Some of the results follow.

Chains of the proteins cited; added tags and fusions are not shown. Lines headed by an entry give the natural chain unless they say otherwise; changes in a name come on top.
UniProt Q96QC0: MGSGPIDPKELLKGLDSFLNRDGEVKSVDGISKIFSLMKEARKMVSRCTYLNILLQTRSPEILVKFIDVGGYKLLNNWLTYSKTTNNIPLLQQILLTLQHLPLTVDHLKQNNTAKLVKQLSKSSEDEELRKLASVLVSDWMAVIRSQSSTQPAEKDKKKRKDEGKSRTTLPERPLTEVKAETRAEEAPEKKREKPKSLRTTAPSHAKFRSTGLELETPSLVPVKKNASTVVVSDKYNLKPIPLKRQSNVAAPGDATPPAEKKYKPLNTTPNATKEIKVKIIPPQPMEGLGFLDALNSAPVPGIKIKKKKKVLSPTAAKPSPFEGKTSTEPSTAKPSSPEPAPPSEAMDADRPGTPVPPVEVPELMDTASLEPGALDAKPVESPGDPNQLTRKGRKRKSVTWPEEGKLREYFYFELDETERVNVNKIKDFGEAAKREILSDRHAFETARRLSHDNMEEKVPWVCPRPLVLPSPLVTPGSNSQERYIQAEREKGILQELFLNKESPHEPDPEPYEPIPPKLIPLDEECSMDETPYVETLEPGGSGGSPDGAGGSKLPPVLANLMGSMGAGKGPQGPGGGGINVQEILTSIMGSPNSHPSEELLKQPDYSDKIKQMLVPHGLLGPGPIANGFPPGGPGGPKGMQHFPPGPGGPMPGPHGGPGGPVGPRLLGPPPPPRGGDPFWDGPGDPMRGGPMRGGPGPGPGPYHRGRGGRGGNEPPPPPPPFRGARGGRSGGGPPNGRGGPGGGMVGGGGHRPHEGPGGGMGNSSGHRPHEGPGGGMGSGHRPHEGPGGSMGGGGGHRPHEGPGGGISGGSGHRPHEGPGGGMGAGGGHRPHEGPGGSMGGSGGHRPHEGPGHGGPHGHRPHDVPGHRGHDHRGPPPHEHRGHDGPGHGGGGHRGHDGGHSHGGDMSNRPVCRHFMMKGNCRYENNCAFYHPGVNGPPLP
UniProt Q99873, whole entry, looked up: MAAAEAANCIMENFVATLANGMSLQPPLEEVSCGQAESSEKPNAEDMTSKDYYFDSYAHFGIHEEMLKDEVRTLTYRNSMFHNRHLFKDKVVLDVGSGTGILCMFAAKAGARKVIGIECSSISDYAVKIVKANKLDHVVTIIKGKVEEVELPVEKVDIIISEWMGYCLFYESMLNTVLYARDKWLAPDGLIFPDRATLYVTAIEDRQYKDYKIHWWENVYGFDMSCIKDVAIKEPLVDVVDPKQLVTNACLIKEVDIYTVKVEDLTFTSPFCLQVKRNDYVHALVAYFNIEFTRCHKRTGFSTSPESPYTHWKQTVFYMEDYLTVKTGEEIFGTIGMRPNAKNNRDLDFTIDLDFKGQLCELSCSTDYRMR
UniProt P67775, whole entry, looked up: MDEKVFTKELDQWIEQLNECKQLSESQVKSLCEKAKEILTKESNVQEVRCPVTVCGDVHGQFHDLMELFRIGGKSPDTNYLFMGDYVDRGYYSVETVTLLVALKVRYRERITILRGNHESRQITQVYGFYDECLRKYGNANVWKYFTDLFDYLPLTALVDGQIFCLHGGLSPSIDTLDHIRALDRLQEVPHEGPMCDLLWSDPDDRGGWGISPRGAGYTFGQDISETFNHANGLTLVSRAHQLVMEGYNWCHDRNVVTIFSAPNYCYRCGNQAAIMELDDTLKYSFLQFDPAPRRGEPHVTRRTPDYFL
UniProt P62714, whole entry, looked up: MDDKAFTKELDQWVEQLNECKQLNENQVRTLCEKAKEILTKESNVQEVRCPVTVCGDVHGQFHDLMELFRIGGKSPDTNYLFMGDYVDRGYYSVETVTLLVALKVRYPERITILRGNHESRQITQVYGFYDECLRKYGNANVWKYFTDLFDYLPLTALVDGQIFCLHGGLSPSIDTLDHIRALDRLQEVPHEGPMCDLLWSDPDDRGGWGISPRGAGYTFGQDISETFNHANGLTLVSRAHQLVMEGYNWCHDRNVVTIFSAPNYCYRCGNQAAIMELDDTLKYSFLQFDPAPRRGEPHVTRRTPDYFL
UniProt O75569: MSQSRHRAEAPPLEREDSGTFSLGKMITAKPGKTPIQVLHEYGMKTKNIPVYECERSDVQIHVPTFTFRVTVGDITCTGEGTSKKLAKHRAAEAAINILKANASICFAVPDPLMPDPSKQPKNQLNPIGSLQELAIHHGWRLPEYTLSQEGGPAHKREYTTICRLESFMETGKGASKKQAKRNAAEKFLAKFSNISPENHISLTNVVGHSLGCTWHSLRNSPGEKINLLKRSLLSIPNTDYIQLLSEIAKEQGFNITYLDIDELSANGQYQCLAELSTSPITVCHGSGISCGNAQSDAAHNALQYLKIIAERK
UniProt Q9HCU5: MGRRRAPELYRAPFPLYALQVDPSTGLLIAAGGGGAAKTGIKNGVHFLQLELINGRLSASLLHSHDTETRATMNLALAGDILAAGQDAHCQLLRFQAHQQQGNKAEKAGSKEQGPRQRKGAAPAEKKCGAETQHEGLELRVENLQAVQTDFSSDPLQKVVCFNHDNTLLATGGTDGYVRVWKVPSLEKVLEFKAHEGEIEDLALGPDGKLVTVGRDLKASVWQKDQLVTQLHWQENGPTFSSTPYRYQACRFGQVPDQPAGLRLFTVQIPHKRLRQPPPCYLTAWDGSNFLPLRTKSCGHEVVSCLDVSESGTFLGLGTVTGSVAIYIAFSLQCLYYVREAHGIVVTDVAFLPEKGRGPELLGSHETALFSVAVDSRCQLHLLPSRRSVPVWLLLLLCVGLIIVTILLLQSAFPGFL
UniProt P48147: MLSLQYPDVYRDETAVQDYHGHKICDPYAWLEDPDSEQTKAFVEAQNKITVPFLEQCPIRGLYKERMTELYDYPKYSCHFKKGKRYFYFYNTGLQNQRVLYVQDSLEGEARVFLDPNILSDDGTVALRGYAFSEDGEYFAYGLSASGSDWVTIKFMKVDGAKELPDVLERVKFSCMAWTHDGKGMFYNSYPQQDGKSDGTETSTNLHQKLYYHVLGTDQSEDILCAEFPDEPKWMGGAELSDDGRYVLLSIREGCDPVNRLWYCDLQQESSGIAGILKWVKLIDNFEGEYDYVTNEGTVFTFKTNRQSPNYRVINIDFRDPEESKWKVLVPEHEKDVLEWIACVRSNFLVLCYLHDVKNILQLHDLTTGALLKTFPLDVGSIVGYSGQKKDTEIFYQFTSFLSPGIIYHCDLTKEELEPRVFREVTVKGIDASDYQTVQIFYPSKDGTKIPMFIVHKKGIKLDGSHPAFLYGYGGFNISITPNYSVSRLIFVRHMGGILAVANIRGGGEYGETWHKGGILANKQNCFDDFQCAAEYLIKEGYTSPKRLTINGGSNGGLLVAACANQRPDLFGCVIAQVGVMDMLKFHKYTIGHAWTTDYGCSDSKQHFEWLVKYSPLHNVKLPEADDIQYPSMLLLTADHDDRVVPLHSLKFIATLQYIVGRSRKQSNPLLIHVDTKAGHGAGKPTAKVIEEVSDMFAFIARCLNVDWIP
UniProt P41236: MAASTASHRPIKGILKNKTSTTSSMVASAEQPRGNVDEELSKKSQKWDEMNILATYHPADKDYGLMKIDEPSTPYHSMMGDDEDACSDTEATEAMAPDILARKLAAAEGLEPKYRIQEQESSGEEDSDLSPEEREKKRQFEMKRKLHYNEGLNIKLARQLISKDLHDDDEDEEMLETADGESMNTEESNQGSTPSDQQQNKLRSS
UniProt Q14558: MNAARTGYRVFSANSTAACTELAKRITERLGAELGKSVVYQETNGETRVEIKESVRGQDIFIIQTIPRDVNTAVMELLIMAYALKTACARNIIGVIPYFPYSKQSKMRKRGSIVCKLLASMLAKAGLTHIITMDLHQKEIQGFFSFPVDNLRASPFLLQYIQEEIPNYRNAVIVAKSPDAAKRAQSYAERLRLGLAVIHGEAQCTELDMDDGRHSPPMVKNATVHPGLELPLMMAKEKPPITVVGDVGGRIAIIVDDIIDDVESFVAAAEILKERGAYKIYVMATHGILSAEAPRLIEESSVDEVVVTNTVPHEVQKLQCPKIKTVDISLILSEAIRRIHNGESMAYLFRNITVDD
UniProt Q8TF05: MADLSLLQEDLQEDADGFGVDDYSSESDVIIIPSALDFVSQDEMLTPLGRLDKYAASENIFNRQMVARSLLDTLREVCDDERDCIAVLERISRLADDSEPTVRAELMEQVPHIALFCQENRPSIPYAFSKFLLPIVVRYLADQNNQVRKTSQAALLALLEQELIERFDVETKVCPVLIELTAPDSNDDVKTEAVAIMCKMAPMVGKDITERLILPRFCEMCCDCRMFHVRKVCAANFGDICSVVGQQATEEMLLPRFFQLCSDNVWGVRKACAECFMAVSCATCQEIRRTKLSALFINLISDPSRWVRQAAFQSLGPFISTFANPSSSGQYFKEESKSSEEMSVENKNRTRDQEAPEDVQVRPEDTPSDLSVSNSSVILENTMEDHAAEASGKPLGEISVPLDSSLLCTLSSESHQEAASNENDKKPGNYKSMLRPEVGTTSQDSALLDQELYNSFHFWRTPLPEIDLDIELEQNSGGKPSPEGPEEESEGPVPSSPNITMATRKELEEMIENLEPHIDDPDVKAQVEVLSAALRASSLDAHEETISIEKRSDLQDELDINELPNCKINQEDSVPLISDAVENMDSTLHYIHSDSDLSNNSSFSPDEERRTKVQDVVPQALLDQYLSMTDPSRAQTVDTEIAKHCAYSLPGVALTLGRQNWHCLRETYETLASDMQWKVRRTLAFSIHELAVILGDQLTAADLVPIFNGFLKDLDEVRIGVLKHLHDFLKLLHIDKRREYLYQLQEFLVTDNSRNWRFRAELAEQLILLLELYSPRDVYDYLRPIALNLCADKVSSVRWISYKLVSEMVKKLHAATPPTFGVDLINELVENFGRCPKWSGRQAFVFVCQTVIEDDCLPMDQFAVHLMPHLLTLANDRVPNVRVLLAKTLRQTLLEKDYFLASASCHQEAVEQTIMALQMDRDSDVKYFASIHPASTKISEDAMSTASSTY
UniProt Q13162: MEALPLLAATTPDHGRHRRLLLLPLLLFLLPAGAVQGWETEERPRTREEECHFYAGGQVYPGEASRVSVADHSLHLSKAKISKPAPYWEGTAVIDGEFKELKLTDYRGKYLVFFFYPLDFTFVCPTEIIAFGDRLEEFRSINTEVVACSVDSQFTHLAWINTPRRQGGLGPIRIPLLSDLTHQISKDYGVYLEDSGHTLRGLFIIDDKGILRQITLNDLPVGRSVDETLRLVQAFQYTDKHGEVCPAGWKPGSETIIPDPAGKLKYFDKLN
UniProt P14314: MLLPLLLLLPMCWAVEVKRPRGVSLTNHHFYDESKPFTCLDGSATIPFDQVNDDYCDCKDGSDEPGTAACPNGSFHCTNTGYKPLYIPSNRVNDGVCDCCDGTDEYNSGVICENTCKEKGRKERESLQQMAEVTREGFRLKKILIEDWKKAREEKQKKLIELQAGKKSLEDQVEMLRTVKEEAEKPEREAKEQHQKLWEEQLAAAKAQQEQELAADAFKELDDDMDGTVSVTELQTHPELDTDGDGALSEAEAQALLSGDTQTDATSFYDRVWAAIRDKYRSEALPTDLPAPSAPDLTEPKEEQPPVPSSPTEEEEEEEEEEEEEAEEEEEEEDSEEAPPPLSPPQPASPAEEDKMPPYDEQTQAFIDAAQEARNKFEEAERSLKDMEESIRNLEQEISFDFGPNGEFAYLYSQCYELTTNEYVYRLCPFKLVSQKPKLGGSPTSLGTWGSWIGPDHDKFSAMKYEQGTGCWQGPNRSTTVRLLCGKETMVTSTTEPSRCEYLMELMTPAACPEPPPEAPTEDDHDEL
UniProt Q15435: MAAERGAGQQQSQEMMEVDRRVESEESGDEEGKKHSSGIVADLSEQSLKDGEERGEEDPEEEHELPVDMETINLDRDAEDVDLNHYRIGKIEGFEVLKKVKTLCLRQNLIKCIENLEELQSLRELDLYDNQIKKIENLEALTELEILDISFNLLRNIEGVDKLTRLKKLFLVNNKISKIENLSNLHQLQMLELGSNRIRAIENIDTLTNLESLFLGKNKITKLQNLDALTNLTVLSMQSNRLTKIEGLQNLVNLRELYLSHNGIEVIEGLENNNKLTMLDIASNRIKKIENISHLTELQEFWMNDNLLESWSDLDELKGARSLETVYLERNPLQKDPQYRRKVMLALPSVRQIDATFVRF
UniProt P30044: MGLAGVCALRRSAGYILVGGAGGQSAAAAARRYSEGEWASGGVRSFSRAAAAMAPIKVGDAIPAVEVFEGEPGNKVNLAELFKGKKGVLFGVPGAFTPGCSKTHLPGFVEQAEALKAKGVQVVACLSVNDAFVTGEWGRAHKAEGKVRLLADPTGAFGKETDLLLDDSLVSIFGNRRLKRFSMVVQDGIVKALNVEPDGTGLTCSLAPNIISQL

Key:
Assay in all cases: log2 fold change, soluble protein after heating vs DMSO (PISA); higher = thermal stabilisation; K562 cells, 10 uM, 30 min; active = over 0.2 and 3.5 SD of the protein, either way, in both replicates (recomputed)
[1] = compound: CS(=O)(=O)c1ccc(-c2cnc(N)c(C(=O)Nc3ccccc3)n2)cc1
In short: (§1)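 K562 cells at 2×10^6 cells/mL were given 10 μM compound for 30 min. Aliquots then went through 3 min of heating across 48°C-58°C, were pooled, and were extracted in PBS with 0.5% NP-40 at 4°C, and the supernatant after 21,000xg for 90 min was quantified by TMTpro 16plex LC-MS/MS with channel sums equalised. Thermal stability relative to control samples, from duplicates, is given as log2 fold change.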

crizotinib = compound: C[C@@H](Oc1cc(-c2cnn(C3CCNCC3)c2)cnc1N)c1c(Cl)ccc(F)c1Cl [crizotinib]
In short: as §1

[2] = compound: C[C@@H]1COCCN1C2=NC(=NC(=C2)C3(CC3)S(=O)(=O)C)C4=C5C=CNC5=CC=C4
In short: as §1

[3] = compound: C[C@H](C1=CC=C(C=C1)C(=O)NC2=C3C=CNC3=NC=C2)N
In short: as §1

duvelisib = compound: C[C@H](Nc1ncnc2nc[nH]c12)c1cc2cccc(Cl)c2c(=O)n1-c1ccccc1 [duvelisib]
In short: as §1

gandotinib = compound: Cc1cc(Nc2cc(CN3CCOCC3)c3nc(C)c(Cc4ccc(Cl)cc4F)n3n2)n[nH]1 [gandotinib]
In short: as §1

tozasertib = compound: Cc1cc(Nc2cc(N3CCN(C)CC3)nc(Sc3ccc(NC(=O)C4CC4)cc3)n2)n[nH]1 [tozasertib]
In short: as §1

[4] = compound: Cc1cc(SCc2sc(-c3ccc(C(F)(F)F)cc3)nc2C)ccc1OCC(=O)O
In short: as §1

doramapimod = compound: Cc1ccc(-n2nc(C(C)(C)C)cc2NC(=O)Nc2ccc(OCCN3CCOCC3)c3ccccc23)cc1 [doramapimod]
In short: as §1

ispinesib = compound: Cc1ccc(C(=O)N(CCCN)[C@@H](c2nc3cc(Cl)ccc3c(=O)n2Cc2ccccc2)C(C)C)cc1 [ispinesib]
In short: as §1

bafetinib = compound: Cc1ccc(NC(=O)c2ccc(CN3CC[C@H](N(C)C)C3)c(C(F)(F)F)c2)cc1Nc1nccc(-c2cncnc2)n1 [bafetinib]
In short: as §1

[5] = compound: Cc1cccc(CC(=O)N2CCc3c2ccc(-c2cn(C)c4ncnc(N)c24)c3F)n1
In short: as §1

nilotinib = compound: Cc1cn(-c2cc(NC(=O)c3ccc(C)c(Nc4nccc(-c5cccnc5)n4)c3)cc(C(F)(F)F)c2)cn1 [nilotinib]
In short: as §1

[6] = compound: Cc1nc(Nc2n[nH]c3c2CN(C(=O)N[C@H](CN(C)C)c2ccccc2)C3(C)C)c2sccc2n1
In short: as §1

dasatinib = compound: Cc1nc(Nc2ncc(C(=O)Nc3c(C)cccc3Cl)s2)cc(N2CCN(CCO)CC2)n1 [dasatinib]
In short: as §1

[7] = compound: Cc1ncc(-c2ccnc(Nc3ccc(S(C)(=O)=O)cc3)n2)n1C(C)C
In short: as §1

[8] = compound: Cn1cc(-c2ccc3c(c2)CCN3C(=O)Cc2cccc(C(F)(F)F)c2)c2c(N)ncnc21
In short: as §1

[9] = compound: Cn1cc(-c2ccc3nnc(C(F)(F)c4ccc5ncccc5c4)n3n2)cn1
In short: as §1

tipifarnib = compound: Cn1cncc1[C@@](N)(c1ccc(Cl)cc1)c1ccc2c(c1)c(-c1cccc(Cl)c1)cc(=O)n2C [tipifarnib]
In short: as §1

mubritinib = compound: FC(F)(F)c1ccc(/C=C/c2nc(COc3ccc(CCCCn4ccnn4)cc3)co2)cc1 [mubritinib]
In short: as §1

Measured: log2 fold change

PPP1R10 (UniProt Q96QC0)
inactive: [1] -0.112 | crizotinib -0.083 | [2] -0.199 | [3] 0.266 | duvelisib -0.063 | gandotinib 0.182 | tozasertib -0.091 | [4] -0.018 | doramapimod 0.186 | ispinesib -0.061 | bafetinib 0.13 | [5] -0.036 | nilotinib 0.001 | [6] 0.163 | dasatinib 0.119 | [7] 0.119 | [8] -0.119 | [9] -0.116 | tipifarnib 0.123 | mubritinib -0.077

PRMT1 (UniProt Q99873)
inactive: [1] 0.022 | crizotinib -0.042 | [2] 0.013 | [3] -0.103 | duvelisib 0.003 | gandotinib -0.074 | tozasertib -0.04 | [4] 0.024 | doramapimod -0.003 | ispinesib 0.059 | bafetinib -0.017 | [5] 0.08 | nilotinib -0.037 | [6] 0.007 | dasatinib -0.055 | [7] 0.007 | [8] 0.073 | [9] -0.052 | tipifarnib -0.08 | mubritinib 0.051

PPP2CA (UniProt P67775)
inactive: [1] 0.015 | crizotinib 0.001 | [2] 0.009 | [3] -0.11 | duvelisib -0.017 | gandotinib -0.027 | tozasertib 0.025 | [4] -0.027 | doramapimod -0.07 | ispinesib 0.065 | bafetinib 0.035 | [5] -0.007 | nilotinib -0.016 | [6] 0.011 | dasatinib 0.029 | [7] -0.011 | [8] -0.022 | [9] 0 | tipifarnib -0.036 | mubritinib -0.007

PPP2CB (UniProt P62714)
inactive: [1] -0.013 | crizotinib 0.046 | [2] -0.007 | [3] -0.046 | duvelisib 0.039 | gandotinib -0.007 | tozasertib -0.027 | [4] -0.05 | doramapimod -0.019 | ispinesib 0.019 | bafetinib -0.045 | [5] -0.013 | nilotinib 0.025 | [6] -0.021 | dasatinib 0.022 | [7] 0.01 | [8] 0.021 | [9] 0.024 | tipifarnib 0.053 | mubritinib 0.056

PRKRA (UniProt O75569)
inactive: [1] -0.068 | crizotinib -0.089 | [2] -0.289 | [3] 0.555 | duvelisib -0.252 | gandotinib 0.034 | tozasertib 0.138 | [4] 0.078 | doramapimod -0.069 | ispinesib -0.4 | bafetinib -0.056 | [5] -0.003 | nilotinib -0.028 | [6] -0.056 | dasatinib -0.02 | [7] -0.047 | [8] -0.241 | [9] -0.18 | tipifarnib 0.05 | mubritinib -0.239

PREB (UniProt Q9HCU5)
inactive: [1] 0.04 | crizotinib 0.034 | [2] 0.017 | [3] -0.003 | duvelisib 0.06 | gandotinib 0.006 | tozasertib -0.055 | [4] -0.016 | doramapimod 0.002 | ispinesib 0.057 | bafetinib -0.033 | [5] -0.034 | nilotinib -0.028 | [6] 0.031 | dasatinib -0.002 | [7] 0.112 | [8] 0.015 | [9] -0.018 | tipifarnib 0.035 | mubritinib 0.025

PREP (UniProt P48147)
inactive: [1] 0 | crizotinib -0.139 | [2] -0.07 | [3] 0.083 | duvelisib 0.024 | gandotinib -0.051 | tozasertib 0.258 | [4] 0.091 | doramapimod 0.064 | ispinesib -0.096 | bafetinib 0.006 | [5] 0.02 | nilotinib -0.01 | [6] -0.063 | dasatinib -0.124 | [7] 0.029 | [8] -0.067 | [9] -0.011 | tipifarnib -0.136 | mubritinib -0.024

PPP1R2 (UniProt P41236)
inactive: [1] 0.031 | crizotinib 0.02 | [2] -0.061 | [3] -0.042 | duvelisib 0.041 | gandotinib -0.004 | tozasertib -0.04 | [4] -0.075 | doramapimod -0.006 | ispinesib -0.026 | bafetinib -0.049 | [5] -0.034 | nilotinib 0.03 | [6] 0.014 | dasatinib 0.034 | [7] 0.006 | [8] -0.003 | [9] 0.036 | tipifarnib 0.007 | mubritinib 0.024

2 entries drawn at random from those above, as already listed:
PREB (UniProt Q9HCU5)
inactive: [1] 0.04 | crizotinib 0.034 | [2] 0.017 | [3] -0.003 | duvelisib 0.06 | gandotinib 0.006 | tozasertib -0.055 | [4] -0.016 | doramapimod 0.002 | ispinesib 0.057 | bafetinib -0.033 | [5] -0.034 | nilotinib -0.028 | [6] 0.031 | dasatinib -0.002 | [7] 0.112 | [8] 0.015 | [9] -0.018 | tipifarnib 0.035 | mubritinib 0.025

PPP1R2 (UniProt P41236)
inactive: [1] 0.031 | crizotinib 0.02 | [2] -0.061 | [3] -0.042 | duvelisib 0.041 | gandotinib -0.004 | tozasertib -0.04 | [4] -0.075 | doramapimod -0.006 | ispinesib -0.026 | bafetinib -0.049 | [5] -0.034 | nilotinib 0.03 | [6] 0.014 | dasatinib 0.034 | [7] 0.006 | [8] -0.003 | [9] 0.036 | tipifarnib 0.007 | mubritinib 0.024

Remaining list, next part.

PRPSAP1 isoform 2 (UniProt Q14558)
inactive: [1] 0.028 | crizotinib 0.024 | [2] -0.064 | [3] -0.011 | duvelisib -0.036 | gandotinib 0.042 | tozasertib 0.008 | [4] -0.059 | doramapimod -0.029 | ispinesib 0.051 | bafetinib -0.004 | [5] 0.022 | nilotinib 0.018 | [6] 0.048 | dasatinib 0.07 | [7] 0.009 | [8] -0.021 | [9] -0.023 | tipifarnib 0.025 | mubritinib 0.071

PRMT5 (UniProt O14744)
inactive: [1] -0.035 | crizotinib -0.004 | [2] 0.057 | [3] -0.012 | duvelisib 0.167 | gandotinib 0.045 | tozasertib -0.02 | [4] -0.024 | doramapimod -0.04 | ispinesib 0.039 | bafetinib 0.01 | [5] -0.001 | nilotinib -0.015 | [6] 0.047 | dasatinib 0.035 | [7] -0.014 | [8] 0.021 | [9] 0.008 | tipifarnib -0.006 | mubritinib 0.033

PPP4R1 (UniProt Q8TF05)
inactive: [1] 0.033 | crizotinib -0.025 | [2] 0.085 | [3] -0.03 | duvelisib 0.028 | gandotinib -0.123 | tozasertib 0.012 | [4] 0.053 | doramapimod -0.018 | ispinesib 0.001 | bafetinib -0.016 | [5] 0.06 | nilotinib -0.067 | [6] 0.006 | dasatinib -0.052 | [7] -0.001 | [8] 0.02 | [9] -0.014 | tipifarnib -0.066 | mubritinib 0.051

PRDX4 (UniProt Q13162)
inactive: [1] 0.01 | crizotinib -0.02 | [2] 0.088 | [3] -0.024 | duvelisib 0.007 | gandotinib -0.038 | tozasertib -0.036 | [4] -0.051 | doramapimod -0.037 | ispinesib 0.023 | bafetinib -0.023 | [5] -0.027 | nilotinib -0.03 | [6] -0.003 | dasatinib 0.013 | [7] -0.061 | [8] 0.051 | [9] -0.061 | tipifarnib 0.079 | mubritinib 0.004

PRKCSH (UniProt P14314)
inactive: [1] -0.034 | crizotinib 0.007 | [2] -0.058 | [3] -0.054 | duvelisib -0.072 | gandotinib -0.093 | tozasertib 0.029 | [4] 0.036 | doramapimod -0.013 | ispinesib 0.06 | bafetinib 0.017 | [5] -0.057 | nilotinib -0.006 | [6] -0.012 | dasatinib -0.005 | [7] -0.024 | [8] -0.005 | [9] -0.033 | tipifarnib -0.01 | mubritinib -0.03

PPP1R7 (UniProt Q15435)
inactive: [1] 0.078 | crizotinib 0.041 | [2] -0.006 | [3] -0.043 | duvelisib 0.016 | gandotinib 0.017 | tozasertib 0.018 | [4] 0.01 | doramapimod -0.024 | ispinesib 0.008 | bafetinib -0.009 | [5] 0.014 | nilotinib -0.04 | [6] -0.01 | dasatinib -0.044 | [7] 0.045 | [8] 0.014 | [9] 0.066 | tipifarnib -0.076 | mubritinib 0.081

PRDX5 (UniProt P30044)
inactive: [1] 0.015 | crizotinib 0.057 | [2] 0.067 | [3] -0.063 | duvelisib 0.045 | gandotinib -0.02 | tozasertib 0 | [4] -0.041 | doramapimod -0.003 | ispinesib 0.014 | bafetinib -0.067 | [5] -0.028 | nilotinib 0.036 | [6] 0.016 | dasatinib 0.039 | [7] -0.007 | [8] 0.045 | [9] 0.08 | tipifarnib -0.009 | mubritinib 0.022

PRMT9 (UniProt Q6P2P2)
inactive: [1] 0.197 | crizotinib -0.07 | [2] 0.474 | [3] -0.014 | duvelisib 0.013 | gandotinib -0.154 | tozasertib -0.024 | [4] -0.012 | doramapimod 0.01 | ispinesib 0.076 | bafetinib -0.087 | [5] -0.069 | nilotinib -0.107 | [6] 0.036 | dasatinib -0.025 | [7] -0.011 | [8] 0.011 | [9] 0.004 | tipifarnib -0.08 | mubritinib -0.016
